This is one part of the list. Only a few entries rise above the background.
Tests used:
Experiment in all cases: fluorescence intensity of antibody binding to polysaccharide-coupled beads; higher = stronger binding
[1] = molecular target: pneumococcal polysaccharide Pn35C
[2] = molecular target: pneumococcal polysaccharide Pn35F
[3] = molecular target: pneumococcal polysaccharide Pn36
[4] = molecular target: pneumococcal polysaccharide Pn37
[5] = molecular target: pneumococcal polysaccharide Pn38
[6] = molecular target: pneumococcal polysaccharide Pn39
[7] = molecular target: pneumococcal polysaccharide Pn4
[8] = molecular target: pneumococcal polysaccharide Pn40
[9] = molecular target: pneumococcal polysaccharide Pn41A
[10] = molecular target: pneumococcal polysaccharide Pn41F
[11] = molecular target: pneumococcal polysaccharide Pn42
[12] = molecular target: pneumococcal polysaccharide Pn43
[13] = antibody concentration 2337.65 ng/mL
[14] = antibody concentration 12500 ng/mL
[15] = antibody concentration 0.1 ng/mL
[16] = antibody concentration 0.534724 ng/mL
[17] = antibody concentration 2.8593 ng/mL
[18] = antibody concentration 15.2894 ng/mL
[19] = antibody concentration 81.7561 ng/mL
[20] = antibody concentration 437.17 ng/mL

B1: 4-80.2 (protein)
chain 1: QVQLQESGPGLVKPSETLSLTCAVSGDSFSSYWWSWIRQPPGKGLEWIGEINGNVGSTNYNPSLKSRVTISKDASKNQFSLKLSSVTAADTAVYYCARYKEYWGQGVLVTVSS
chain 2: DVVMTQSPLSLPITPGQPASISCRSSQSLVHSNGNTYLSWYQQKPGQPPRRLIYEVSNRDSGVPDRFSGSGAGTDFTLKISRVEAEDVGVYYCGQGTHLPYSFGQGTKVEIK
Which fluorescence intensity [1, 13] does the source give for B1 here?
Its fluorescence intensity is 21.5 MFI.

And the fluorescence intensity [1, 14]?
Its fluorescence intensity is 22.8 MFI.

And the fluorescence intensity [2, 15]?
Its fluorescence intensity is 17.2 MFI.

What about the fluorescence intensity [2, 16] of the same binder?
The fluorescence intensity was 20.5 MFI.

And the fluorescence intensity [2, 17]?
Its fluorescence intensity is 18 MFI.

What about the fluorescence intensity [2, 18] of the same binder?
Its fluorescence intensity is 20 MFI.

And the fluorescence intensity [2, 19]?
Its fluorescence intensity is 21 MFI.

What about the fluorescence intensity [2, 20] of the same binder?
The fluorescence intensity was 18.8 MFI.

And the fluorescence intensity [2, 13]?
The fluorescence intensity was 20.5 MFI.

And the fluorescence intensity [2, 14]?
Its fluorescence intensity is 23 MFI.

What about the fluorescence intensity [3, 15] of the same binder?
Its fluorescence intensity is 15.8 MFI.

What about the fluorescence intensity [3, 16] of the same binder?
Its fluorescence intensity is 16.5 MFI.

And the fluorescence intensity [3, 17]?
The fluorescence intensity was 16 MFI.

What about the fluorescence intensity [3, 18] of the same binder?
The fluorescence intensity was 15.5 MFI.

What about the fluorescence intensity [3, 19] of the same binder?
The fluorescence intensity was 15.5 MFI.

And the fluorescence intensity [3, 20]?
Its fluorescence intensity is 16.5 MFI.

What about the fluorescence intensity [3, 13] of the same binder?
Its fluorescence intensity is 18 MFI.

What about the fluorescence intensity [3, 14] of the same binder?
Its fluorescence intensity is 30 MFI.

What about the fluorescence intensity [4, 15] of the same binder?
The fluorescence intensity was 26.5 MFI.

And the fluorescence intensity [4, 16]?
The fluorescence intensity was 26.5 MFI.

What about the fluorescence intensity [4, 17] of the same binder?
The fluorescence intensity was 26.2 MFI.

What about the fluorescence intensity [4, 18] of the same binder?
Its fluorescence intensity is 26.5 MFI.

And the fluorescence intensity [4, 19]?
The fluorescence intensity was 25.5 MFI.

What about the fluorescence intensity [4, 20] of the same binder?
Its fluorescence intensity is 27.5 MFI.

And the fluorescence intensity [4, 13]?
Its fluorescence intensity is 32 MFI.

And the fluorescence intensity [4, 14]?
Its fluorescence intensity is 40.5 MFI.

And the fluorescence intensity [5, 15]?
The fluorescence intensity was 26.5 MFI.

And the fluorescence intensity [5, 16]?
Its fluorescence intensity is 27 MFI.

And the fluorescence intensity [5, 17]?
The fluorescence intensity was 27.2 MFI.

What about the fluorescence intensity [5, 18] of the same binder?
The fluorescence intensity was 26 MFI.

What about the fluorescence intensity [5, 19] of the same binder?
Its fluorescence intensity is 26.2 MFI.

And the fluorescence intensity [5, 20]?
The fluorescence intensity was 23.8 MFI.

And the fluorescence intensity [5, 13]?
The fluorescence intensity was 28.5 MFI.

What about the fluorescence intensity [5, 14] of the same binder?
Its fluorescence intensity is 35.8 MFI.

And the fluorescence intensity [6, 15]?
Its fluorescence intensity is 19 MFI.

What about the fluorescence intensity [6, 16] of the same binder?
Its fluorescence intensity is 19 MFI.

And the fluorescence intensity [6, 17]?
The fluorescence intensity was 18.5 MFI.

And the fluorescence intensity [6, 18]?
The fluorescence intensity was 18 MFI.

And the fluorescence intensity [6, 19]?
The fluorescence intensity was 19.5 MFI.

And the fluorescence intensity [6, 20]?
Its fluorescence intensity is 18.2 MFI.

And the fluorescence intensity [6, 13]?
The fluorescence intensity was 19.5 MFI.

And the fluorescence intensity [6, 14]?
The fluorescence intensity was 31.2 MFI.

What about the fluorescence intensity [7, 15] of the same binder?
The fluorescence intensity was 20 MFI.

And the fluorescence intensity [7, 16]?
The fluorescence intensity was 18.5 MFI.

And the fluorescence intensity [7, 17]?
The fluorescence intensity was 19 MFI.

And the fluorescence intensity [7, 18]?
The fluorescence intensity was 20 MFI.

What about the fluorescence intensity [7, 19] of the same binder?
The fluorescence intensity was 18.5 MFI.

What about the fluorescence intensity [7, 20] of the same binder?
Its fluorescence intensity is 18.2 MFI.

What about the fluorescence intensity [7, 13] of the same binder?
The fluorescence intensity was 21.5 MFI.

What about the fluorescence intensity [7, 14] of the same binder?
Its fluorescence intensity is 22 MFI.

What about the fluorescence intensity [8, 15] of the same binder?
The fluorescence intensity was 17.5 MFI.

What about the fluorescence intensity [8, 16] of the same binder?
The fluorescence intensity was 17.5 MFI.

What about the fluorescence intensity [8, 17] of the same binder?
Its fluorescence intensity is 16 MFI.

And the fluorescence intensity [8, 18]?
Its fluorescence intensity is 16.5 MFI.

What about the fluorescence intensity [8, 19] of the same binder?
The fluorescence intensity was 16 MFI.

And the fluorescence intensity [8, 20]?
Its fluorescence intensity is 18 MFI.

And the fluorescence intensity [8, 13]?
The fluorescence intensity was 17.2 MFI.

And the fluorescence intensity [8, 14]?
Its fluorescence intensity is 23.5 MFI.

And the fluorescence intensity [9, 15]?
Its fluorescence intensity is 24.5 MFI.

And the fluorescence intensity [9, 16]?
Its fluorescence intensity is 24 MFI.

And the fluorescence intensity [9, 17]?
Its fluorescence intensity is 23 MFI.

And the fluorescence intensity [9, 18]?
The fluorescence intensity was 23.5 MFI.

And the fluorescence intensity [9, 19]?
Its fluorescence intensity is 24.2 MFI.

And the fluorescence intensity [9, 20]?
Its fluorescence intensity is 23.5 MFI.

What about the fluorescence intensity [9, 13] of the same binder?
The fluorescence intensity was 24.5 MFI.

And the fluorescence intensity [9, 14]?
The fluorescence intensity was 28.2 MFI.

And the fluorescence intensity [10, 15]?
Its fluorescence intensity is 13.5 MFI.

What about the fluorescence intensity [10, 16] of the same binder?
Its fluorescence intensity is 13 MFI.

And the fluorescence intensity [10, 17]?
Its fluorescence intensity is 12.5 MFI.

What about the fluorescence intensity [10, 18] of the same binder?
The fluorescence intensity was 14 MFI.

And the fluorescence intensity [10, 19]?
The fluorescence intensity was 12.5 MFI.

And the fluorescence intensity [10, 20]?
Its fluorescence intensity is 13.5 MFI.

And the fluorescence intensity [10, 13]?
Its fluorescence intensity is 14.5 MFI.

What about the fluorescence intensity [10, 14] of the same binder?
The fluorescence intensity was 17.5 MFI.

And the fluorescence intensity [11, 15]?
The fluorescence intensity was 13 MFI.

And the fluorescence intensity [11, 16]?
Its fluorescence intensity is 12.5 MFI.

And the fluorescence intensity [11, 17]?
Its fluorescence intensity is 12 MFI.

What about the fluorescence intensity [11, 18] of the same binder?
The fluorescence intensity was 11 MFI.

What about the fluorescence intensity [11, 19] of the same binder?
Its fluorescence intensity is 11.8 MFI.

What about the fluorescence intensity [11, 20] of the same binder?
Its fluorescence intensity is 12 MFI.

What about the fluorescence intensity [11, 13] of the same binder?
The fluorescence intensity was 14.5 MFI.

What about the fluorescence intensity [11, 14] of the same binder?
Its fluorescence intensity is 19 MFI.

And the fluorescence intensity [12, 15]?
Its fluorescence intensity is 16.8 MFI.

What about the fluorescence intensity [12, 16] of the same binder?
Its fluorescence intensity is 16.5 MFI.

And the fluorescence intensity [12, 17]?
Its fluorescence intensity is 17.2 MFI.

What about the fluorescence intensity [12, 18] of the same binder?
The fluorescence intensity was 16.8 MFI.

What about the fluorescence intensity [12, 19] of the same binder?
The fluorescence intensity was 16.2 MFI.

What about the fluorescence intensity [12, 20] of the same binder?
Its fluorescence intensity is 17 MFI.

What about the fluorescence intensity [12, 13] of the same binder?
Its fluorescence intensity is 20 MFI.

And the fluorescence intensity [12, 14]?
Its fluorescence intensity is 45 MFI.
